This passage reports binding result and binding signal results from PMC6882875.

Data set [1] deals with T1, AraQ (Bifidobacterium breve UCC2003).
T1 sequence (looked up, limits assumed): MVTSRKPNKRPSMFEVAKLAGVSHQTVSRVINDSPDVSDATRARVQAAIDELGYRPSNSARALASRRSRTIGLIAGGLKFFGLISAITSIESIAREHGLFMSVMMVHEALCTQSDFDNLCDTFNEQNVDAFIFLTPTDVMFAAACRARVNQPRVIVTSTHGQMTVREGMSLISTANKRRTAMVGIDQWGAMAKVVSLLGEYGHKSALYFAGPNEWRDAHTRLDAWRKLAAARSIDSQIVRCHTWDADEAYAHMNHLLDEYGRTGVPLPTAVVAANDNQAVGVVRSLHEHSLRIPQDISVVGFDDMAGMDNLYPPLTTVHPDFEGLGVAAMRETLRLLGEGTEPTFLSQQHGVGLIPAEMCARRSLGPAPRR
The data set can be described thus: EMSA. Particulars: 150 nM protein, EMSA: binding buffer stock 80 mM Tris-HCl pH 8.0, 20 mM MgCl2, 2 mM DTT, 4 mM EDTA, 400 mM KCl, 40% glycerol (final dilution not stated), poly(dI-dC) 0.05 ug/ul, recombinant protein, protein details: C-terminal His10, probe letters rebuilt from the primers and the genome; for binding result: label: 5' IRD700. (In general: Mobility shift assays separate free from complexed probe on a gel.)

For data set [2], the system named is T2, MalR1 (Bifidobacterium breve UCC2003).
T2 sequence (looked up): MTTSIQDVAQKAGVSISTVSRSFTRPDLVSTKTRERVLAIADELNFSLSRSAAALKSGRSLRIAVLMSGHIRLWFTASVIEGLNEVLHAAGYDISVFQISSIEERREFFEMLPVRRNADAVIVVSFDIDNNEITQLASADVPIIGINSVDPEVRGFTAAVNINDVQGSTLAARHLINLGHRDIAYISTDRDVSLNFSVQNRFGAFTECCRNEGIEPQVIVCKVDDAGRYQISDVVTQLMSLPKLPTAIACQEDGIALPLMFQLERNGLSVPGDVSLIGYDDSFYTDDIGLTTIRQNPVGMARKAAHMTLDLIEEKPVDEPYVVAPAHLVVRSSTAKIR
Kind of data set: EMSA. Particulars: 150 nM protein, EMSA: binding buffer stock 80 mM Tris-HCl pH 8.0, 20 mM MgCl2, 2 mM DTT, 4 mM EDTA, 400 mM KCl, 40% glycerol (final dilution not stated), poly(dI-dC) 0.05 ug/ul, recombinant protein, residues 1-338, protein details: C-terminal His10, probe letters rebuilt from the primers and the genome.

[3] abbreviates: label: 5' IRD700 (both strands).

Where a protein sequence is shown, tags need not be part of it. For some of these results: The exact form of at least one protein or probe is not confirmed.

Consider “GATCGACATACAGCATGCCGTTCGGTTGAAAATACGACATAAGCACGATGCCTCCTTGCAATGCATTAAACCACTGCGGCCAGCTACGGCCATCAGACGAATTTAATGTTGAGGTTCATTCCGCTTCACCAAATTCGTATTATCATCATATCGTCATAACGTATTATCGTCATATCGGCGTGTCGCTATGGCGAACCGCAATCCGTATGCTCCTTTTATCAGCCAGAATCAGATTCGAATTCAGTCTCAACAAGACTGTTAACCACCGACCAATGAAGCATCGAGGCCGGCTCAATCGGCAAATGCAACAGTAAGAACCTAGATTGCCCTGAAAGTCACGCCGTTGCGGGCGGCCTTGCGTTCGGCTTTGCGCTCCTCGGCATTTTCGATGCGTTGGATGCGCAGCTGGCGCCAATCCTCGCGCATATC (double strand) [Bbr_1894 (PTS) promoter]”, for which the binding result in data set [1] is “binds”. Also, the binding signal in data set [2] (label: 5' IRD700) is under 15 % bound.

As to “GCAAGGCGTTTGGCGAGCGAGCTGAATCGTCGTACGGCCATATGAGTCCTTTCTCTCATCCTTGAGCATTGACCGCACGAACCATGAAGGGGAACACCCCCTATCGCACGGTCAGACCGTTGACAACGTTTGCAACACTTTCAGCACCACTCCTGCAGAAACGGCATGCAGCACAGTTGACAGACTGCATACGTTCGCAACACTATGTCCCAATCAGCATACCACACCAAGCAACACTTCCCCCAGCTTCGCGCTAACGTTTGCAGTATATGATACAAATGATTACACATCGTGGATGGCGCAACCCGTTAGGGGATTACGTGGCATAGCCGATACCACGAATTGCACGAGGAGGAACATGGGCAAGGCAGACATCTACC (double strand) [malR3/apuB intergenic region]”, the binding signal in data set [1] (setting [3]) and in data set [2] (setting [3]) was under 15 % bound each time.

Consider “GCATTGCCTCAGGTAAGCCGTTTCCATGAATTCAGTGGCGGCATCGGCAAGCTGGACACCGAAGTGTCCAAGCTGTTGGTTCGCTGACCGGACGTGAGCCCCAACTTCCGTGGATTCACGCCGTCGGTCCAATACGGGAAACCGCATATCGGTTGCCGGCGATCCACAATGTGAGCGCTCACAAAAAAACGACGTTTTTGCTCAAAACGCACGCTCAGACATTGCCATGTGTACAGAGTCGGCATTACAGTAGCAACTGTTGGTAAACAATGGCCCGGTGTGCCAGAGCGCACCACGGGCACCCTACAAGGGAGAATTACATGACAGTTAAGATTGGTATCAACGGCTTCGGTCGCATTGGTC (double strand) [gap promoter]”, for which the binding result in data set [1] (titrated 0-250 nM in Fig. 2) is given as “binds”; in data set [2] (titrated 0-250 nM in Fig. 2, label: 5' IRD700), “binds”.

For the sequence “GCCAGCCTACTTTCTCCTCCTTGAGCACACCCGCACTACTGCGTGCGAGTGGTCCGAATTTGGGATTGTTCAGTCTCCTCAGTGCTGAATAGCACCAAATCGAACCGGTTTAAGGTTACCATACCACGCGTATGACCGATGGTCAAACGTTGTCACAGAAAGCGTGTCCATCACTCCTTCCTCGCTGCCTAGGCACAGGGCAAAATGCTGGAAATACTGATTTTTGGCATTTCCGATGCAGAATAACACATATGATAACGTTGTCTTATCGACTGCTCAACACATGGTCGACGCCGTCCGCGTTTATTGTTGTGTCATAGACGCATCTCACTGCAAAGGAGACCGGCATGG (double strand) [malG2 (F2) promoter]”, in data set [1], the binding result was “binds”. Moreover, in data set [2] (label: 5' IRD700, counted as no binding), the binding signal was 0 % bound.

In the case of “GCCGATAGAACAGCGTATGGGTCCGTACAAGACCAAAGAAGACGCCGAACATGCGTGGGATATAGTGGTGGACCGTAACGCCAAATGGGATGAGGAAAACCGCCGCTGGGATAACTACGGCGTCAAACCGCCCGCCGGCAAATCGTCGGATACCGACTGACCATATGTGTTTTCGCCGCGATCGGCGAACATGCCGATGACGGATGACAGATAGCTACACCGCTCAACTTCACATCGAGAGTTGAGCGGTTTTGTCTAATATCGGCCGTGACAATCGGACGGCGGATGCTGGAAACCGCTGGATTGGTAGCGCTCACAGAAGAATGTGAGATAGCTCACTCCCAATTTCAGCTTTTCTCAAGACTGTGCAAACTACACTAGTGAAGCAAGGGTTCCGTGAAGATGCGAAACCTACAACCCCATTAAGGAGTGACATGACCGCAGTAGAAAATGCAGCTGTCTCCCAAGAGGAGCTCGACGCCAAG (double strand) [pflB-pflA promoter]”, the binding result in data set [1] and in data set [2] (label: 5' IRD700) was “binds” each time.
